Data on three molecules can be found in paper PMC5841803, “Retinal guanylyl cyclase activating protein 1 forms a functional dimer” (PLoS ONE, 2018).

One test deals with GCAP1 V77E (bovine) (UniProt P46065). The experiment in a line: SEC; analytical SEC, Superdex 200 HR 10/30, 100 uL of 200 uM protein, 10 mM Tris pH 7.4, 100 mM NaCl, 1 mM DTT, 4 C, with saturating Mg2+ (2 mM) or Ca2+ (2 mM); molar mass from elution time against protein standards; both purified.
For the next test, the target named is GCAP1 H19R (bovine) (UniProt P46065). Described as above.
The target of test [1] is GCAP1 F73E (bovine) (UniProt P46065). The test is described as above.
Test [2] has the same target. Description: NMR 1H-15N HSQC peak widths; 15N-labelled myristoylated GCAP1 0.5 mM, 10 mM Tris pH 7.4, 1 mM DTT, 37 C, 800 MHz; Ca2+-bound state by the legend of Fig 6A; sharpness of peaks of mutant against wild type; both purified.

Positions count from the first letter of the chain named. Results are given in words; binding and its absence hold for the method and conditions named.

B1: GCAP1 V77E (protein, UniProt P46065 2-205)
chain: GNIMSGKSVEELSSTECHQWYKKFMTECPSGQLTLYEFRQFFGLKNLSPWASQYVEQMFETFDFNKDGYIDFMEYEAALSLVLKGKVEQKLRWYFKLYDVDGNGCIDRDELLTIIRAIRAINPCSDSTMTAEEFTDTVFSKIDVNGDGELSLEEFMEGVQKDQMLLDTLTRSLDLTRIVRRLQNGEQDEEGASGRETEAAEADG
modifications: N-terminal myristoylation
With B1, the binding result with GCAP1 V77E (bovine) was “no binding (tested: 200 μM protein applied)”.

B2: GCAP1 H19R (protein, UniProt P46065 1-205)
chain: MGNIMSGKSVEELSSTECRQWYKKFMTECPSGQLTLYEFRQFFGLKNLSPWASQYVEQMFETFDFNKDGYIDFMEYVAALSLVLKGKVEQKLRWYFKLYDVDGNGCIDRDELLTIIRAIRAINPCSDSTMTAEEFTDTVFSKIDVNGDGELSLEEFMEGVQKDQMLLDTLTRSLDLTRIVRRLQNGEQDEEGASGRETEAAEADG
modifications: N-terminal myristoylation
As for B2, in the test with GCAP1 H19R (bovine), the binding result is listed as “no binding (tested: 200 μM protein applied)”.

B3: GCAP1 F73E (protein, UniProt P46065 1-205)
chain: B2 chain with R19H, F73E
modifications: N-terminal myristoylation
Consider B3, for which the binding result is recorded as “no binding (tested: 200 μM protein applied)” with GCAP1 F73E (bovine) [1] and “no binding (tested: 0.5 mM)” in the test with GCAP1 F73E (bovine) [2].
